Measurements reported in PubChem BioAssay AID1259308 (NCATS, 2017).
This is one part, drawn at random, of about 59,000 reagents. Of all reagents, about 1,510 (2.6%) were called active. 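Calls use total luciferase alone and ignore viability, so some active siRNAs may act by altering cell number.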 Reagents against one gene are numbered here. Not all columns of the deposit are shown.

Test: 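Knock-downs that increase output of a recombinant reporter protein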 (primary screen)
Cell system: human HEK293 embryonic kidney cells stably expressing firefly luciferase (HEK-CMV-Luc2-Hygro)
Reagents: single siRNA against human genes, 0.8 pmol siRNA per well
Timing: 72 h
Measurement: 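Luciferase light (ONE-Glo) measured on one replicate plate set and viability (CellTiter-Glo) on the other, scaled to a negative control siRNA, with robust z-scores and luciferase per cell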
Direction: total luciferase, z-score: higher = more reporter protein produced
Active means: 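An siRNA counts as active if its total luciferase robust z-score exceeds 3; genes with two or more such siRNAs out of three were retested with fresh siRNAs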
Calls: active = raised luciferase; inactive = no rise

total luciferase, z-score, by gene knocked down and reagent
SEC22A (GeneID 26984): #1 1.71 inactive; #2 -2.51 inactive; #3 2.27 inactive
MARVELD3 (GeneID 91862): #1 4.53 active; #2 1.8 inactive; #3 0.157 inactive
MRPL37 (GeneID 51253): #1 2.38 inactive; #2 -0.532 inactive; #3 0.515 inactive
PAK6-AS1 (GeneID 644809): #1 1.78 inactive; #2 -0.989 inactive; #3 -0.277 inactive
DDX27 (GeneID 55661): #1 -0.7 inactive; #2 -1.02 inactive; #3 0.147 inactive
LRRC8B (GeneID 23507): #1 -0.0414 inactive; #2 -1.16 inactive; #3 1.06 inactive
SCN5A (GeneID 6331): #1 -0.184 inactive; #2 1.84 inactive; #3 -1.41 inactive
RPL21P131 (GeneID 388532): #1 -2.71 inactive; #2 -1.46 inactive; #3 -1.16 inactive
CDC14A (GeneID 8556): #1 -0.596 inactive; #2 0.0726 inactive; #3 0.765 inactive
GAREM1 (GeneID 64762): #1 -0.199 inactive; #2 0.418 inactive; #3 0.0969 inactive
TKTL2 (GeneID 84076): #1 -1.11 inactive; #2 0.693 inactive; #3 -0.0498 inactive
ESYT3 (GeneID 83850): #1 1.82 inactive; #2 -0.194 inactive; #3 -0.235 inactive
CCRL2 (GeneID 9034): #1 0.6 inactive; #2 -1.59 inactive; #3 0.0909 inactive; #4 0.557 inactive; #5 0.734 inactive; #6 0.788 inactive
FANCA (GeneID 2175): #1 1.35 inactive; #2 -0.216 inactive; #3 2.55 inactive
DOK4 (GeneID 55715): #1 1.32 inactive; #2 0.469 inactive; #3 -1.05 inactive
SPEM2 (GeneID 201243): #1 -3.1 inactive; #2 -0.521 inactive; #3 -0.305 inactive
AP1S3 (GeneID 130340): #1 -0.604 inactive; #2 2.06 inactive; #3 -0.266 inactive
PGA5 (GeneID 5222): #1 -1.5 inactive; #2 0.567 inactive; #3 0.34 inactive
TMPRSS13 (GeneID 84000): #1 0.43 inactive; #2 0.636 inactive; #3 -1.09 inactive
VAPA (GeneID 9218): #1 -0.895 inactive; #2 0.362 inactive; #3 -0.686 inactive
ZSCAN29 (GeneID 146050): #1 1.49 inactive; #2 -1.58 inactive; #3 -1.29 inactive
FNDC9 (GeneID 408263): #1 0.689 inactive; #2 0.793 inactive; #3 -0.675 inactive
CDH3 (GeneID 1001): #1 0.659 inactive; #2 -0.347 inactive; #3 -0.271 inactive
TOM1L2 (GeneID 146691): #1 -1.33 inactive; #2 -1.67 inactive; #3 -1.11 inactive

No new results follow: 3 of the entries above.
total luciferase, z-score, by gene knocked down and reagent
MARVELD3 (GeneID 91862): #1 4.53 active; #2 1.8 inactive; #3 0.157 inactive
